Test results: PubChem BioAssay AID540362 (National Center for Advancing Translational Sciences (NCATS), 2011)
Listed are the inconclusive results; actives and inactives stand elsewhere. Calls come from the whole dose curve; as a rule, active = well fitted cell-killing curve with a large enough effect; inconclusive = small, poorly fitted or top-dose-only effect; inactive = flat fitted curve, though single readings scatter. Where the call is inconclusive, the potency comes from a doubtful curve fit.

Test: PC3M Cytotoxicity Assay for Compounds that Inhibit the Perinuclear Compartment
Settings: PC3M-GFP viability, ATPLite luminescence, 24 h
Description: The perinucleolar compartment (PNC) is a non-membrane-bound nuclear subdomain that is associated with but structurally distinct from the nucleolus. The PNC is a heritable trait, in which the number of PNCs per cell in daughter cells often mimics that of their mother cells. The PNC is heterogeneous in shape, is stable through interphase, disassembles during mitosis, and reassembles in early G1. The PNC is concentrated with newly synthesized RNA polymerase III (pol III) RNAs (MRP RNA, RNAse P H1 RNA, hY RNAs[hY1, 2, 5], Alu RNA, and SRP [7SL] RNA) and RNA binding proteins (nucleolin, PTB, CUG-BP, KSRP, Raver1, Raver2, and Rod). […] Extensive in vitro studies have shown that the PNC is unique to tumor cells and preferentially forms in tumor cells derived from solid tissues. Examination of cancer cell lines from various origins and malignant capacities has shown that PNC prevalence correlates with the malignancy of tumors and has the potential to be developed as a pan-cancer prognostic marker. […] Although the PNC is associated with a DNA locus and a handful of components have been identified, much remains to be investigated regarding the structure and function of the PNC and its mechanistic link to cancer. […]
1. […] Luminescencent signal was detected on a Viewlux CCD based imager (PerkinElmer) with a clear filter and a 30 second integration time. […]

Row | SMILES | Potency
1 | c1ccc(-c2c(-c3ccccc3)n(Cc3ccco3)c3ncnc(NCCCn4ccnc4)c23)cc1 | inconclusive: 28.1 µM [cytotoxic, single point]
2 | N=c1c2c(-c3ccccc3)c(-c3ccccc3)n(Cc3ccco3)c2ncn1CCCO | inconclusive: 31.5 µM [cytotoxic, single point]
